From patent US20120045391A1 (NATIONAL RESEARCH COUNCIL CANADA, published 2012)
No constants are given. Whether binding was seen depends on the method and setting. Some binding calls cover weakened binding; strength is not graded here.

T1: IGFBP7 (recombinant; preparation not specified) (UniProt Q16270)
T1 sequence (looked up): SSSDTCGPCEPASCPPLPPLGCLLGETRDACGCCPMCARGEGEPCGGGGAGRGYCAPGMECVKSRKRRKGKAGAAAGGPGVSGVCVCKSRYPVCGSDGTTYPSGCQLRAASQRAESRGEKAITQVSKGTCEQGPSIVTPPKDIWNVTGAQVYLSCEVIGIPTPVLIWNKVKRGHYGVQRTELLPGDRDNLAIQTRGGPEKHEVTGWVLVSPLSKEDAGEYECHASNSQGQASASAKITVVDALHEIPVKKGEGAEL

T2: recombinant protein IGFBP7 from R&D (UniProt Q16270 27-282)
T2 construct: Bought protein immobilized on the Biacore chip; also called recombinant IGFBP7
T2 sequence (looked up): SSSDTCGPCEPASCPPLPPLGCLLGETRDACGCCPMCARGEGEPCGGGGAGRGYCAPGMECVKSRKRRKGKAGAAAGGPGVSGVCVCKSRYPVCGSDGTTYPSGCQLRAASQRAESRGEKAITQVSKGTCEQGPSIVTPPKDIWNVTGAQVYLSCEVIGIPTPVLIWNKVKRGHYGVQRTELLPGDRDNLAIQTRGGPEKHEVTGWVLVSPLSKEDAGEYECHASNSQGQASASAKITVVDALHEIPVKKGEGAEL

T3: recombinant custom-synthesized IGFBP7 (UniProt Q16270 27-282)
T3 construct: also called custom-synthesized recombinant IGFBP7
T3 sequence (looked up): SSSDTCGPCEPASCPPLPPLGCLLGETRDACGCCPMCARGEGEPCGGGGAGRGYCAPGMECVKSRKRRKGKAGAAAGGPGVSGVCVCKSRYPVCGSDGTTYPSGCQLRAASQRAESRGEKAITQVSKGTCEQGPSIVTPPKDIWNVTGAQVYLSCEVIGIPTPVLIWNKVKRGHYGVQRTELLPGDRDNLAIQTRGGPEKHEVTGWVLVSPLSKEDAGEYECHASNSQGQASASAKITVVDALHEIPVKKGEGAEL


Key:
[1] = target: T1, IGFBP7 (recombinant; preparation not specified); assay: SPR (BiaCore), IGFBP7 immobilized, sdAb at 0.5-4.5 µM
[2] = target: T2, recombinant protein IGFBP7 from R&D; assay: SPR (BiaCore), IGFBP7 immobilized, sdAb at 25-200 nM
[3] = target: T3, recombinant custom-synthesized IGFBP7; assay: as above

Binder	binding [1]	binding [2]	binding [3]
sdAb clone 4.6-IGFBP7 (VHH, also called IGFBP7-4.6; not shown: c-Myc detection tag and 5xHis purification tag added at the C-terminus by vector pSJF2) VHH: QVKLEESGGGSVQPGGSLRLSCAASGRTFSRLAMGWFRQAPGKERELVAGISRSGDGTHYAYSVKGRFTISRDNAANTVELQMNSLKPEDTAVYFCAAARTAFYYYGNDYNYWGQGTQVTVSS	binds		
sdAb clone 4.43-IGFBP7 (VHH, not shown: c-Myc detection tag and 5xHis purification tag added at the C-terminus by vector pSJF2) VHH: QVKLEESGGGLVQAGGSLRLSCAASGRTSRRYAMGWFRQAPGKEREFVAGISRSGDGTHYAYSVKGRFTISRDNAANTVELQMNSLKPEDTAVYFCAAARTAFYYYGNDYNYWGQGTQVTVSS		binds	binds
